Test results as given in article PMC6105598, “Targeting protein-protein interactions for therapeutic discovery via FRET-based high-throughput screening in living cells” (Scientific Reports, 2018).

Protein sequences, listed by entry. Tags and fused reporters are not part of them. Residues count along the entry.
UniProt P11607, 1-997 isoform P11607-2: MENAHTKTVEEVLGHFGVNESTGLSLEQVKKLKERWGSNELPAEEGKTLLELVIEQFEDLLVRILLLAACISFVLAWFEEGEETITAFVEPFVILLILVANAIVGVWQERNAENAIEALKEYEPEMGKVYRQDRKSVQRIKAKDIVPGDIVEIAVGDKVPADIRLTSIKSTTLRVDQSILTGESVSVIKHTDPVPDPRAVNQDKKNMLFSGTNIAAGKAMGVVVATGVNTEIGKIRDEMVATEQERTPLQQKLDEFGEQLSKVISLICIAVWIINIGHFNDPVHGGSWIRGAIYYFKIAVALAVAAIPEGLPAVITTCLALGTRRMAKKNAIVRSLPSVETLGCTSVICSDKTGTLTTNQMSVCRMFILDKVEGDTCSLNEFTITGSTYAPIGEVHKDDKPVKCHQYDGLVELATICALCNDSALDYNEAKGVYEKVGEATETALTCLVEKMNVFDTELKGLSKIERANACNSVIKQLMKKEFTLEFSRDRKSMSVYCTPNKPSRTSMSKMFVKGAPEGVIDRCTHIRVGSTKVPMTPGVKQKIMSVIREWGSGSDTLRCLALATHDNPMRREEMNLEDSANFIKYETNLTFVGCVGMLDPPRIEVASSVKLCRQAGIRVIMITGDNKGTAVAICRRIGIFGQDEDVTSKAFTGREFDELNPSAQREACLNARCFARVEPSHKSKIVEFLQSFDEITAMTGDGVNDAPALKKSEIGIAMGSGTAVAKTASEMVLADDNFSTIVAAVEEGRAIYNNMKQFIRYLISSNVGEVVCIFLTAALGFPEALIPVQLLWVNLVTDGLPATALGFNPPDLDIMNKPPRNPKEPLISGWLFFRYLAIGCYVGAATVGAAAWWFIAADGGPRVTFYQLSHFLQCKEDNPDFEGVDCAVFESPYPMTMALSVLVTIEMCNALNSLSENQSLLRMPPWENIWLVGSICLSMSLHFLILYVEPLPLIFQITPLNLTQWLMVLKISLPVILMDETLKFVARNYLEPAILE
UniProt P04191, 1-994 isoform P04191-2: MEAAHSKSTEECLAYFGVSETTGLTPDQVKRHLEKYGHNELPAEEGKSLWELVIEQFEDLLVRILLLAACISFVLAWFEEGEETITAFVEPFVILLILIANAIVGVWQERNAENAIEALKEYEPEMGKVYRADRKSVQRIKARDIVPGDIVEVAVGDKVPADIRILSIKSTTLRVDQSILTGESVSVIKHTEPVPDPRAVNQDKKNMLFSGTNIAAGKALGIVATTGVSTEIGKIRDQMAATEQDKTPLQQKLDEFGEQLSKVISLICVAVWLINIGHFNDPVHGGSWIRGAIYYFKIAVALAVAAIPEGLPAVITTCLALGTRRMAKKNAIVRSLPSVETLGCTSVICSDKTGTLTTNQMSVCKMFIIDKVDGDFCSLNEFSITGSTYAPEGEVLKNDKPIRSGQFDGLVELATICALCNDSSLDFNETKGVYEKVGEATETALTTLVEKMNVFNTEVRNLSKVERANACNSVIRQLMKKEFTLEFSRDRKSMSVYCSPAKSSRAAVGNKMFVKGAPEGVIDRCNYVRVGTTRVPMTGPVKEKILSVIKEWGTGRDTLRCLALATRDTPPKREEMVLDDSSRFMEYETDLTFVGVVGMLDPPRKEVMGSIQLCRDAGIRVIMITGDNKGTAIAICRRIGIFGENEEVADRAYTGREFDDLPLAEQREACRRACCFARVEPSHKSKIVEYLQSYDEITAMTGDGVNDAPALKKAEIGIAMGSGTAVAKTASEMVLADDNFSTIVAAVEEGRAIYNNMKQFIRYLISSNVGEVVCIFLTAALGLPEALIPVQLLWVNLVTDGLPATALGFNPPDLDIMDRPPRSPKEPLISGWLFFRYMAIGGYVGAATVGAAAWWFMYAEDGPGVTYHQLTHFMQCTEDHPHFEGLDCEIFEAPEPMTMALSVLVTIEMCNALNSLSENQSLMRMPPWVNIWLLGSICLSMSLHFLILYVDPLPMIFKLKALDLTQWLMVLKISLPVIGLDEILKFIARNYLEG
UniProt P16615, 1-997 isoform P16615-2, stated change not applied: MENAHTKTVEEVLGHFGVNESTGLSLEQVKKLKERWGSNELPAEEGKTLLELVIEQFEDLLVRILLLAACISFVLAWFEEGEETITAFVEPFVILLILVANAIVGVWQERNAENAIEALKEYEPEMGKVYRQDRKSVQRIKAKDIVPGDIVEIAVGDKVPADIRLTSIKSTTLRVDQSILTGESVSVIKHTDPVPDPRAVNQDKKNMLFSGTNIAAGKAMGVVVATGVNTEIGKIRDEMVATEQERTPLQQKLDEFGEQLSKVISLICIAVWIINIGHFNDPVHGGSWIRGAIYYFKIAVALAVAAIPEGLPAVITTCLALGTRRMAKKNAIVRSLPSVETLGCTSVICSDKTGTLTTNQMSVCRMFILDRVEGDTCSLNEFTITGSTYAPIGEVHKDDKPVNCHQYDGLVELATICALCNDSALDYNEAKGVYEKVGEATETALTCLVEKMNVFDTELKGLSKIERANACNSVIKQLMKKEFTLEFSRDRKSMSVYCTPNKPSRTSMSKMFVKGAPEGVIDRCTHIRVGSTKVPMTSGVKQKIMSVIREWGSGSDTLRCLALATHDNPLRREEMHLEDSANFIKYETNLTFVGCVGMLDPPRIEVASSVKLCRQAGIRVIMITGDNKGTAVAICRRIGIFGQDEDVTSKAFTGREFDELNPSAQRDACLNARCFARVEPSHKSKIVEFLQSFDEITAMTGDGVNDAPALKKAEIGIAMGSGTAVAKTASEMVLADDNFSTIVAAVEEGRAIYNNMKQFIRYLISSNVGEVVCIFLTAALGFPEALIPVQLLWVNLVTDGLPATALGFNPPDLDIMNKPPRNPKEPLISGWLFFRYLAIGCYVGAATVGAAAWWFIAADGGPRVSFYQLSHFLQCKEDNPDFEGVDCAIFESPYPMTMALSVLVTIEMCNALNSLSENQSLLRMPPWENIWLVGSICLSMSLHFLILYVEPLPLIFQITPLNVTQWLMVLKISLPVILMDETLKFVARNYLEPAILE
UniProt P26678, whole entry C36A/C41F/C46A: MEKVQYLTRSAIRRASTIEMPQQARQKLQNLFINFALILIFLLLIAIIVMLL

What was measured:
[1] = biological target: T1, cardiac SR (SERCA2a + PLB) (Sus scrofa, UniProt P11607); experiment: Ca-ATPase activity of cardiac SR (CSR), NADH-linked enzyme-coupled assay; format: biochemical, pig
T1 construct: Cardiac SR membrane vesicles were isolated from ventricular myocardium obtained from fresh pig hearts; from tissue; host or cells: pig ventricular myocardium, SR membrane vesicles
Experimental: To characterize the relationship between the structural readout (FRET) and the functional effects, in vitro Ca-ATPase assays were performed on cardiac SR (which contains both SERCA2a and PLB). […] To further examine the functional effects of Hit compounds, Ca-ATPase assays were performed on both skeletal SR (SERCA1a only) and cardiac SR (SERCA2a + PLB) at a series of Ca concentrations ranging from pCa 5 to 8.
(§1) Skeletal muscle SR membrane vesicles were isolated from longissimus dorsi obtained from New Zealand white rabbits, as previously described. Cardiac SR membrane vesicles were isolated from ventricular myocardium obtained from fresh pig hearts. All experimental protocols were reviewed and approved by University of Minnesota’s Institutional Animal Care and Use Committee, an Association for Assessment and Accreditation of Laboratory Animal Care institution.
An enzyme-coupled, NADH-linked ATPase assay was used to measure SERCA ATPase activity in 96-well microplates. […] The assay was started upon the addition of ATP at a final concentration of 5 mM and read in a SpectraMax Plus microplate spectrophotometer rom Molecular Devices (Sunnyvale, CA).

[2] = biological target: T2, skeletal SR (SERCA1a only) (Oryctolagus cuniculus, UniProt P04191); experiment: Ca-ATPase activity of skeletal SR (SSR), NADH-linked enzyme-coupled assay; format: biochemical, rabbit
T2 construct: Skeletal muscle SR membrane vesicles were isolated from longissimus dorsi obtained from New Zealand white rabbits; from tissue; host or cells: rabbit longissimus dorsi skeletal muscle, SR membrane vesicles
Experimental: To further examine the functional effects of Hit compounds, Ca-ATPase assays were performed on both skeletal SR (SERCA1a only) and cardiac SR (SERCA2a + PLB) at a series of Ca concentrations ranging from pCa 5 to 8.
as §1
An enzyme-coupled, NADH-linked ATPase assay was used to measure SERCA ATPase activity in 96-well microplates. Each well contained 0.8 μg (skeletal) or 2 μg (cardiac) of SR vesicles adjusted for the different SERCA contents of skeletal and cardiac SR, 50 mM MOPS (pH 7.0), 100 mM KCl, 5 mM MgCl2, 1 mM EGTA, 0.2 mM NADH, 1 mM phosphoenol pyruvate, 10 IU/mL of pyruvate kinase, 10 IU/mL of lactate dehydrogenase, 3.5 μg/mL of the Ca ionophore A23187, and CaCl2 added to set free [Ca] to the desired values. The assay was started upon the addition of ATP at a final concentration of 5 mM and read in a SpectraMax Plus microplate spectrophotometer rom Molecular Devices (Sunnyvale, CA).

[3] = biological target: SERCA2a-PLB complex (GFP-SERCA2a / RFP-PLB in HEK293 cells) (Homo sapiens, UniProt P16615+P26678, C36A/C41F/C46A); experiment: SERCA2a-PLB TR-FRET (fluorescence lifetime) biosensor assay in living cells; format: cell-based; parameters: expressed in transfected cells; host or cells: HEK293; conditions: for ΔFLT: compound incubation for 20 min, uncertainty (1 S.D.) 11 ps

## O=C1NC(=O)c2c1c(-c1ccccc1)cc1[nH]c3ccc(O)cc3c21 [PD-407824]
[1]
  Vmax @ 30 µM: 0.32 i.u.
[1]; CSR, 30 µM compound, relative to DMSO control
  ΔVmax @ 30 µM: -53.4%
[2]
  Vmax @ 30 µM: 1.31 i.u.
[2]; SSR, 30 µM compound, relative to DMSO control
  ΔVmax @ 30 µM: -50.0%
[3]; final concentration 10 µM
  ΔFLT: -103 ps
[3]; final concentration 100 µM
  ΔFLT: -186 ps
[3]; concentration-response 0.01-100 µM compound, live HEK293 cells
  EC50: 8.5 µM
